Some of these results come from one statement about several compounds together.
Test system: Botrytis cinerea
Experiment: Activity against gray mold on bell pepper leaves caused by Botrytis cinerea, protective application
Type: in vivo
Details: 250 ppm, protective spray on bell pepper seedlings, rated 5 days after inoculation; untreated control 90% infected

SMILES | infection of the leaves, determined visually [%]
CCC(C)Cc1c(-c2c(F)cc(F)cc2F)c(C)nc2nc(SC)nn12 (centres unmarked) [I-2, 2-Methylthio-5-methyl-6-(2,4,6-trifluorophenyl)-7-(2-methylbutyl)-1,2,4-triazolo[1,5a]pyrimidine] | ≤ 40
CCC(C)Cc1c(-c2c(F)cc(F)cc2F)c(C)nc2nc(OC)nn12 (centres unmarked) [I-11, 2-Methoxy-5-methyl-6-(2,4,6-trifluorophenyl)-7-(2-methylbutyl)-1,2,4-triazolo[1,5a]pyrimidine] | ≤ 40

From patent US20060217400A1, “Triazolopyrimidines, methods for the production thereof, use thereof for controlling harmful fungi, and substances containing said triazolopyrimidines” (priority 2002, published 2006)
